Data reported in the supplement of paper PMC12823440, “Inhibitors supercharge kinase turnover through native proteolytic circuits” (Nature, 2025).
Counter-ions that a name gives are not always drawn. This is one part of the list. The calls rarely recur for the same compound in another form.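 Kinases, fused to nanoluciferase, were expressed in K562 cells; luminescence was measured every 4 h from 2 to 18 h as percent of control (DMSO = 100%, positive control = 0%). A time point is decreased if signal falls significantly (2 sigma). Hits were called by the authors by a rule that is not shown; the count of time points alone does not decide it.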

Chains of the proteins cited; added tags and fusions are not shown. Lines headed by an entry give the natural chain unless they say otherwise; changes in a name come on top.
UniProt P31749: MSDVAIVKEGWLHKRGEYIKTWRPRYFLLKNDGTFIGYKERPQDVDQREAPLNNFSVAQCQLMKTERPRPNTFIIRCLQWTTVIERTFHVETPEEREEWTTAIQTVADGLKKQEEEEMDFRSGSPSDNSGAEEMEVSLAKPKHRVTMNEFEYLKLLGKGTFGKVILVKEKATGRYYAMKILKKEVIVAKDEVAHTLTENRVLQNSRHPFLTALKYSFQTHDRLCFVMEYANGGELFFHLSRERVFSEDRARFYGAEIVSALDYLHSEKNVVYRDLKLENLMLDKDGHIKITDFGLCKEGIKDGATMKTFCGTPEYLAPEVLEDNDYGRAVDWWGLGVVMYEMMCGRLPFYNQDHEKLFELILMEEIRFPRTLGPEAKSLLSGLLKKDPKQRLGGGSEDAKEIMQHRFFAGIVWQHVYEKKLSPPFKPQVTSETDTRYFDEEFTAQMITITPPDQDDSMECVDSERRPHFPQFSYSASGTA
UniProt Q9UM73: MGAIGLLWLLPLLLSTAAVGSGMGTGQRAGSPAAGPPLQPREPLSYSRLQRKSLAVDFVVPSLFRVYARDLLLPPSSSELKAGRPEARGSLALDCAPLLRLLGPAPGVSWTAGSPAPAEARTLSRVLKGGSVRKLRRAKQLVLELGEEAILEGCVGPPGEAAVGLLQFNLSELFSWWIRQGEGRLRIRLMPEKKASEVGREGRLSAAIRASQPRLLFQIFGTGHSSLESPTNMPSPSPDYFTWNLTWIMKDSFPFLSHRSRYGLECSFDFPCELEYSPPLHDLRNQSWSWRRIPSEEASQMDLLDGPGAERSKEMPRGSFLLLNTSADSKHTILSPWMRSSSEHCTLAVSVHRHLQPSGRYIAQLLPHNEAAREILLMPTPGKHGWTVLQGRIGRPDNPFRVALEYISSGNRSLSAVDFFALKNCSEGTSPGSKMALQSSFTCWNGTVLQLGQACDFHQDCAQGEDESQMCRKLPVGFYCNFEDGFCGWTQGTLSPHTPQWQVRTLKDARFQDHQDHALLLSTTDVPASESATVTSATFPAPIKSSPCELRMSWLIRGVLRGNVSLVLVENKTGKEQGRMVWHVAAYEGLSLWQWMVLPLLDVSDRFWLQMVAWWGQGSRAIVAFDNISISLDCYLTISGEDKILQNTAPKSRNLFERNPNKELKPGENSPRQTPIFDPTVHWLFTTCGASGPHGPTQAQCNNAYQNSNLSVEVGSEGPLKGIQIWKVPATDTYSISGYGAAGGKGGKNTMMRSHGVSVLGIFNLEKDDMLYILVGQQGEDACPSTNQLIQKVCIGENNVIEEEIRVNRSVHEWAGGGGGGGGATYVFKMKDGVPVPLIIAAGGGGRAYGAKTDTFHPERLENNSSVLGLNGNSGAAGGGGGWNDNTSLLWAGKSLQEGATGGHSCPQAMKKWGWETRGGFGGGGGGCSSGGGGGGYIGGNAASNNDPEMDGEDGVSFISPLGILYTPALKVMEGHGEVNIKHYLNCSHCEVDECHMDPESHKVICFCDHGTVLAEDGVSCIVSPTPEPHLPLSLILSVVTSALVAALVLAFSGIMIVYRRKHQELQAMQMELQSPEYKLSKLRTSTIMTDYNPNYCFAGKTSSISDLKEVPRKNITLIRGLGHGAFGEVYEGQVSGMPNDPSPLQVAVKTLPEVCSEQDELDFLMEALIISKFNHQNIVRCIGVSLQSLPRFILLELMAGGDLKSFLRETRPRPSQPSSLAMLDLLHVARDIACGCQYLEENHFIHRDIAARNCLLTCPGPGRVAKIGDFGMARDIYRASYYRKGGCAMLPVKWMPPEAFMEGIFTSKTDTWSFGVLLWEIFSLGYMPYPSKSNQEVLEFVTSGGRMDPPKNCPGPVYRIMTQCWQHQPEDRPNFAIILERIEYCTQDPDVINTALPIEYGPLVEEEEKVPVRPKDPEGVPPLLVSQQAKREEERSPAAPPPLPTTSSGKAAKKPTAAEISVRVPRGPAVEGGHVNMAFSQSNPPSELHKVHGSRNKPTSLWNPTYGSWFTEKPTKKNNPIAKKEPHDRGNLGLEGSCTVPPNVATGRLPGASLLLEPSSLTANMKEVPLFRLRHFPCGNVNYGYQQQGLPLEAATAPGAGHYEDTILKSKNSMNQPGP
UniProt P10398: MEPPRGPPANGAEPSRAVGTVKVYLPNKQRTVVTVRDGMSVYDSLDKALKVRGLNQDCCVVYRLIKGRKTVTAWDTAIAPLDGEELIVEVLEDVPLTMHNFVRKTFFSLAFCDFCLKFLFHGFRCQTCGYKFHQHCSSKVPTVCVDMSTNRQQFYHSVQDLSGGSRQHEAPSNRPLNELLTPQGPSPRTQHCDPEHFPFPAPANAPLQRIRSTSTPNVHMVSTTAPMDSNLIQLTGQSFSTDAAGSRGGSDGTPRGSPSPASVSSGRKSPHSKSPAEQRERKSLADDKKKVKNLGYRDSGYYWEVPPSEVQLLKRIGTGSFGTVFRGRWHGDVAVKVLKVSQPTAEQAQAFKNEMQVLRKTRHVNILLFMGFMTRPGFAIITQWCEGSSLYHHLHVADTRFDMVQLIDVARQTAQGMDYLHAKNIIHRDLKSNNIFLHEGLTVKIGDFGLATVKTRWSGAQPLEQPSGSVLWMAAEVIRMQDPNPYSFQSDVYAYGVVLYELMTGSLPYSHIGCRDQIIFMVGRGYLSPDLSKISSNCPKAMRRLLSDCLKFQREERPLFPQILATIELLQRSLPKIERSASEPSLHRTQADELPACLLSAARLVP
UniProt Q96GD4, whole entry: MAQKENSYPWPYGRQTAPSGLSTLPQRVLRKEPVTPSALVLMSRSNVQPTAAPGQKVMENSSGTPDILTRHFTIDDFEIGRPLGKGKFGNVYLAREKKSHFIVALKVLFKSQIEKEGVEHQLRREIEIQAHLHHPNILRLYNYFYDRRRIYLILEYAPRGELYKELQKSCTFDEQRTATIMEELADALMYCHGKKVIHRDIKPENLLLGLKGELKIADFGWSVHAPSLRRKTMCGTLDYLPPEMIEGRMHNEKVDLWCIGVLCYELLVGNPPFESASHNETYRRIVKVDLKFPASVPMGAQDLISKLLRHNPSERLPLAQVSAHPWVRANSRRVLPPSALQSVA
UniProt Q9UQB9: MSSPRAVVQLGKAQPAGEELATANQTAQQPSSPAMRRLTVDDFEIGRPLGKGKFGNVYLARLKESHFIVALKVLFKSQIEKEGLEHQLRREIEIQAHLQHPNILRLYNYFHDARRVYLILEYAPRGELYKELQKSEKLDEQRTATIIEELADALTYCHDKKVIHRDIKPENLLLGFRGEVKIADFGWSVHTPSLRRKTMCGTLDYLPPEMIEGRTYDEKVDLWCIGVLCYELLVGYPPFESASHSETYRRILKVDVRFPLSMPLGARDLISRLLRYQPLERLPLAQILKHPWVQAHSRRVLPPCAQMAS
UniProt P51451: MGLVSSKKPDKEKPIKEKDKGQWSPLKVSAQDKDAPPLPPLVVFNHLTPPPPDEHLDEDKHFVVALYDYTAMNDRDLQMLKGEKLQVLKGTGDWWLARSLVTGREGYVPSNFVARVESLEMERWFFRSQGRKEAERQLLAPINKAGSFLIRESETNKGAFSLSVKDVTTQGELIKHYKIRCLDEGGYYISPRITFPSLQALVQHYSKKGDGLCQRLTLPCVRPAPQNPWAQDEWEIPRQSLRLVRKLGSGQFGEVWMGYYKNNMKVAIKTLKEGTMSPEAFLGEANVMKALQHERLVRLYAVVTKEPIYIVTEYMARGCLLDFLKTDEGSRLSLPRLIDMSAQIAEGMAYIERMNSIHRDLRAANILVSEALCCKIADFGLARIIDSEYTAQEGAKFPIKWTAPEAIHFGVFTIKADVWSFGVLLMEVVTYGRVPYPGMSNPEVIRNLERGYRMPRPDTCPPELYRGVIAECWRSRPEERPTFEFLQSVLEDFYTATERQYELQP
UniProt P51813: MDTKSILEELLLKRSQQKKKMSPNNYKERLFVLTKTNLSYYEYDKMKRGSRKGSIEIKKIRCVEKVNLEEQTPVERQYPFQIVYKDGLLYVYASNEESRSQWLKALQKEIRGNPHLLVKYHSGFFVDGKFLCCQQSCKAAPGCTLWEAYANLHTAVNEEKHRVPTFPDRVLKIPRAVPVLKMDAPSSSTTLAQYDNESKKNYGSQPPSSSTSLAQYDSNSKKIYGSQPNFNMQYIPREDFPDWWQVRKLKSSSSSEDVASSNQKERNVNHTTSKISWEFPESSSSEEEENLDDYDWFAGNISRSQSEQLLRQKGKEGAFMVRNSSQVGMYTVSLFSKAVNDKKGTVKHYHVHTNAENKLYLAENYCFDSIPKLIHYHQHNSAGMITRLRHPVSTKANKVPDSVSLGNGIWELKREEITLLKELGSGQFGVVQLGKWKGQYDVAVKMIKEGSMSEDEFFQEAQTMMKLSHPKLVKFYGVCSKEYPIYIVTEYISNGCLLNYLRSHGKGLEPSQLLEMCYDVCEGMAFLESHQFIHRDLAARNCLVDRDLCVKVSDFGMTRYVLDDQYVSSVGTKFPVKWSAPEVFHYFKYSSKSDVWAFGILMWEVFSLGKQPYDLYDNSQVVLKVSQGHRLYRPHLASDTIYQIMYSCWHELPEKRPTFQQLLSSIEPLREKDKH
UniProt Q9UQM7, whole entry: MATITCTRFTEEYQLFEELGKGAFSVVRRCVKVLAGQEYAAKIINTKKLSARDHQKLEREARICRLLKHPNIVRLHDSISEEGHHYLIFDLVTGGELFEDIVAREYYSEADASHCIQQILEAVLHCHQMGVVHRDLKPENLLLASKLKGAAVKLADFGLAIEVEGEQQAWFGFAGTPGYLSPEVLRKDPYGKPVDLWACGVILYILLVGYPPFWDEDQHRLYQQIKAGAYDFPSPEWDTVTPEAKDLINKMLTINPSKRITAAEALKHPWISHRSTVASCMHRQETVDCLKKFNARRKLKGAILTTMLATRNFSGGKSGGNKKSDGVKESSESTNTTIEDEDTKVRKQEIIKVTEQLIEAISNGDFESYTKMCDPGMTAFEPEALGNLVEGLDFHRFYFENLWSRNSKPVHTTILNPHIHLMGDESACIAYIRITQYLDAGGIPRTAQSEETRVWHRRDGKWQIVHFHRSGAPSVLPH
UniProt Q13555: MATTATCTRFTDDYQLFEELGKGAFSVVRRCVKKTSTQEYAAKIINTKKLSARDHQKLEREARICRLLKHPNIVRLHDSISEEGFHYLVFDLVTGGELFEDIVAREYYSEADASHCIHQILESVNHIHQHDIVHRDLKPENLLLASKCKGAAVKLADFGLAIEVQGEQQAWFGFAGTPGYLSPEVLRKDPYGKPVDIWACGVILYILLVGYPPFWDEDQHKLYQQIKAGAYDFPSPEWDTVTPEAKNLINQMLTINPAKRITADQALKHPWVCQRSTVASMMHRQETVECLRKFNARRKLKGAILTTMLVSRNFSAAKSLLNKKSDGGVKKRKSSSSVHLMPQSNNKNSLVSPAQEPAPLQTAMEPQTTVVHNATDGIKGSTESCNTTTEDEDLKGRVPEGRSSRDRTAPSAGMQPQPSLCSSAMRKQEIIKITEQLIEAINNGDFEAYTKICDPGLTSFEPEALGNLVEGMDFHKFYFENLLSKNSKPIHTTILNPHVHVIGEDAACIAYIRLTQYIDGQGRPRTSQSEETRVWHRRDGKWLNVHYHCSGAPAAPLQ
UniProt Q00526: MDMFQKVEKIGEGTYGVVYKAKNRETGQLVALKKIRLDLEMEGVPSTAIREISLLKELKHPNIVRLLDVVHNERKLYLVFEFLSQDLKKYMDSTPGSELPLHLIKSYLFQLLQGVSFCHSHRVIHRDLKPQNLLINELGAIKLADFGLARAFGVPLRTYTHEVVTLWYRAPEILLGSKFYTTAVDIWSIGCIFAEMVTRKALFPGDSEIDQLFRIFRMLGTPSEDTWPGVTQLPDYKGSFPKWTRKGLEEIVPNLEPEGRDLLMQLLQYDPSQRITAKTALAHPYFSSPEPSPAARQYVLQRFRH
UniProt P11802: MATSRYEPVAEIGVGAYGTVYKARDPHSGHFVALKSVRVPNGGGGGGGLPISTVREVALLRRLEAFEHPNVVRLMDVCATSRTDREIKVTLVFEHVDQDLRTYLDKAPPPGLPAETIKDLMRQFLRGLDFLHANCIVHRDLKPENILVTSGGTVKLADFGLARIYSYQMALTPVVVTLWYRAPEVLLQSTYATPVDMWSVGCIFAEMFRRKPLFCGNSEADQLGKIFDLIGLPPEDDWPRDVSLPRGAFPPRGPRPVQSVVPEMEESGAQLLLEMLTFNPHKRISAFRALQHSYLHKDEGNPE
UniProt Q00535, whole entry, looked up: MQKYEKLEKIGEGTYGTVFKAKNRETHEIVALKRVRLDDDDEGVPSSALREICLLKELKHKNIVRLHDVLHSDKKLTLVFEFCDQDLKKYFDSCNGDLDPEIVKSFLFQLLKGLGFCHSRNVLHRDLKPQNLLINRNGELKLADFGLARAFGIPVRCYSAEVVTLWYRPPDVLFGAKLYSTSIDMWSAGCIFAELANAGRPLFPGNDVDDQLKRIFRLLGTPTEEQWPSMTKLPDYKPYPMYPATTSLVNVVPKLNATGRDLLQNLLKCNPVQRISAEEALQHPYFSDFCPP

Experiments:
Assay in all cases: kinase-Nluc reporter destabilization hit call (1 = scored as downregulated) (binary); higher = compound decreases kinase abundance
Conditions in all cases: K562; 2-18 h
ABL1 = ABL1 (UniProt P00519)
AKT1 = AKT1 (UniProt P31749)
ALK = ALK (UniProt Q9UM73)
ARAF = ARAF (UniProt P10398)
AURKA = AURKA (UniProt O14965)
AURKB = AURKB (UniProt Q96GD4)
AURKC = AURKC (UniProt Q9UQB9)
BLK = BLK (UniProt P51451)
BMX = BMX (UniProt P51813)
BRAF = BRAF (UniProt P15056)
BRAF_V600E = tested on: BRAF_V600E
BTK = BTK (UniProt Q06187)
CAMK2A = CAMK2A (UniProt Q9UQM7)
CAMK2G = CAMK2G (UniProt Q13555)
CDK10 = CDK10 (UniProt Q15131)
CDK2 = CDK2 (UniProt P24941)
CDK3 = CDK3 (UniProt Q00526)
CDK4 = CDK4 (UniProt P11802)
CDK5 = CDK5 (UniProt Q00535)
CDK6 = CDK6 (UniProt Q00534)

Measured: kinase-Nluc reporter destabilization hit call

NC(=O)c1sc2c([N+](=O)[O-])cc(C(F)(F)F)cc2[n+]1[O-] [Cyclapolin 9] (10 µM)
inactive: ABL1 = 0 | AKT1 = 0 | ALK 0 | ARAF 0 | AURKA 0 | AURKB 0 | AURKC 0 | BLK 0 | BMX 0 | BRAF 0 | BRAF_V600E 0 | BTK 0 | CAMK2A 0 | CAMK2G 0 | CDK10 = 0 | CDK2 = 0 | CDK3 = 0 | CDK4 = 0 | CDK5 = 0 | CDK6 = 0

Nc1nc(Nc2ccc3c(c2)CC[C@@H](N2CCCC2)CC3)nn1-c1cc2c(nn1)-c1ccccc1CCC2 [Bemcentinib] (2.5 µM)
inactive: ABL1 = 0 | AKT1 = 0 | ALK 0 | ARAF 0 | AURKA 0 | AURKB 0 | AURKC 0 | BLK 0 | BMX 0 | BRAF 0 | BRAF_V600E 0 | BTK 0 | CAMK2A 0 | CAMK2G 0 | CDK10 = 0 | CDK2 = 0 | CDK3 = 0 | CDK4 = 0 | CDK5 = 0 | CDK6 = 0

O=S(=O)(c1ccc(O)cc1O)N1Cc2cc(O)cc(O)c2C1 (10 µM)
inactive: ABL1 = 0 | AKT1 = 0 | ALK 0 | ARAF 0 | AURKA 0 | AURKB 0 | AURKC 0 | BLK 0 | BMX 0 | BRAF 0 | BRAF_V600E 0 | BTK 0 | CAMK2A 0 | CAMK2G 0 | CDK10 = 0 | CDK2 = 0 | CDK3 = 0 | CDK4 = 0 | CDK5 = 0 | CDK6 = 0

CN(C)CCOc1cc(-c2cn[nH]c2)ccc1NC(=O)C1COc2ccccc2O1 (stereo not given) (10 µM)
inactive: ABL1 = 0 | AKT1 = 0 | ALK 0 | ARAF 0 | AURKA 0 | AURKB 0 | AURKC 0 | BLK 0 | BMX 0 | BRAF 0 | BRAF_V600E 0 | BTK 0 | CAMK2A 0 | CAMK2G 0 | CDK10 = 0 | CDK2 = 0 | CDK3 = 0 | CDK4 = 0 | CDK5 = 0 | CDK6 = 0

CS[C@@]1(C(=O)Nc2ccc3[nH]nc(-c4ccc(OC(C)C)nc4)c3c2)CCN(CC(=O)N2CC=C(c3ccc(-c4ncn(C)n4)cc3)CC2)C1 (2.5 µM)
inactive: ABL1 = 0 | AKT1 = 0 | ALK 0 | ARAF 0 | AURKA 0 | AURKB 0 | AURKC 0 | BLK 0 | BMX 0 | BRAF 0 | BRAF_V600E 0 | BTK 0 | CAMK2A 0 | CAMK2G 0 | CDK10 = 0 | CDK2 = 0 | CDK3 = 0 | CDK4 = 0 | CDK5 = 0 | CDK6 = 0

O=c1cc(-c2ccc(O[C@@H]3O[C@H](CO)[C@@H](O)[C@H](O)[C@H]3O)cc2)oc2cc(O)c([C@@H]3O[C@H](CO)[C@@H](O)[C@H](O)[C@H]3O[C@@H]3OC[C@H](O)[C@H](O)[C@H]3O)c(O)c12 [Vaccarin] (10 µM)
inactive: ABL1 = 0 | AKT1 = 0 | ALK 0 | ARAF 0 | AURKA 0 | AURKB 0 | AURKC 0 | BLK 0 | BMX 0 | BRAF 0 | BRAF_V600E 0 | BTK 0 | CAMK2A 0 | CAMK2G 0 | CDK10 = 0 | CDK2 = 0 | CDK3 = 0 | CDK4 = 0 | CDK5 = 0 | CDK6 = 0

COc1ccc(CCNCc2ccc(OCc3ccc(Cl)nc3)c(OC)c2)cc1OC [SBE13 (Hydrochloride)] (10 µM)
inactive: ABL1 = 0 | AKT1 = 0 | ALK 0 | ARAF 0 | AURKA 0 | AURKB 0 | AURKC 0 | BLK 0 | BMX 0 | BRAF 0 | BRAF_V600E 0 | BTK 0 | CAMK2A 0 | CAMK2G 0 | CDK10 = 0 | CDK2 = 0 | CDK3 = 0 | CDK4 = 0 | CDK5 = 0 | CDK6 = 0

Cc1cccc(-c2nn3c(c2-c2ccnc4ccc(C(N)=O)cc24)CCC3)n1 [Galunisertib] (10 µM)
inactive: ABL1 = 0 | AKT1 = 0 | ALK 0 | ARAF 0 | AURKA 0 | AURKB 0 | AURKC 0 | BLK 0 | BMX 0 | BRAF 0 | BRAF_V600E 0 | BTK 0 | CAMK2A 0 | CAMK2G 0 | CDK10 = 0 | CDK2 = 0 | CDK3 = 0 | CDK4 = 0 | CDK5 = 0 | CDK6 = 0

CC(C)Cn1ncc2cc(Oc3ccc(F)cc3F)c(C(=O)NCCN(C)C)cc21 [p38α inhibitor 1] (10 µM)
inactive: ABL1 = 0 | AKT1 = 0 | ALK 0 | ARAF 0 | AURKA 0 | AURKB 0 | AURKC 0 | BLK 0 | BMX 0 | BRAF 0 | BRAF_V600E 0 | BTK 0 | CAMK2A 0 | CAMK2G 0 | CDK10 = 0 | CDK2 = 0 | CDK3 = 0 | CDK4 = 0 | CDK5 = 0 | CDK6 = 0

An excerpt from above in order of molar mass, smallest number first:
NC(=O)c1sc2c([N+](=O)[O-])cc(C(F)(F)F)cc2[n+]1[O-] [Cyclapolin 9] (10 µM)
inactive: ABL1 = 0 | AKT1 = 0 | ALK 0 | ARAF 0 | AURKA 0 | AURKB 0 | AURKC 0 | BLK 0 | BMX 0 | BRAF 0 | BRAF_V600E 0 | BTK 0 | CAMK2A 0 | CAMK2G 0 | CDK10 = 0 | CDK2 = 0 | CDK3 = 0 | CDK4 = 0 | CDK5 = 0 | CDK6 = 0

O=S(=O)(c1ccc(O)cc1O)N1Cc2cc(O)cc(O)c2C1 (10 µM)
inactive: ABL1 = 0 | AKT1 = 0 | ALK 0 | ARAF 0 | AURKA 0 | AURKB 0 | AURKC 0 | BLK 0 | BMX 0 | BRAF 0 | BRAF_V600E 0 | BTK 0 | CAMK2A 0 | CAMK2G 0 | CDK10 = 0 | CDK2 = 0 | CDK3 = 0 | CDK4 = 0 | CDK5 = 0 | CDK6 = 0

CN(C)CCOc1cc(-c2cn[nH]c2)ccc1NC(=O)C1COc2ccccc2O1 (stereo not given) (10 µM)
inactive: ABL1 = 0 | AKT1 = 0 | ALK 0 | ARAF 0 | AURKA 0 | AURKB 0 | AURKC 0 | BLK 0 | BMX 0 | BRAF 0 | BRAF_V600E 0 | BTK 0 | CAMK2A 0 | CAMK2G 0 | CDK10 = 0 | CDK2 = 0 | CDK3 = 0 | CDK4 = 0 | CDK5 = 0 | CDK6 = 0

Continuation.

CNCCOc1ccccc1C1(Nc2nccn(-c3cc(C(=O)NC4CC4)cc(F)c3C)c2=O)CC1 (10 µM)
inactive: ABL1 = 0 | AKT1 = 0 | ALK 0 | ARAF 0 | AURKA 0 | AURKB 0 | AURKC 0 | BLK 0 | BMX 0 | BRAF 0 | BRAF_V600E 0 | BTK 0 | CAMK2A 0 | CAMK2G 0 | CDK10 = 0 | CDK2 = 0 | CDK3 = 0 | CDK4 = 0 | CDK5 = 0 | CDK6 = 0

C=CC(=O)Nc1cccc(Oc2nc(Nc3ccc(N4CCN(C)CC4)cc3OC)ncc2Cl)c1 (10 µM)
inactive: ABL1 = 0 | AKT1 = 0 | ALK 0 | ARAF 0 | AURKA 0 | AURKB 0 | AURKC 0 | BLK 0 | BMX 0 | BRAF 0 | BRAF_V600E 0 | BTK 0 | CAMK2A 0 | CAMK2G 0 | CDK10 = 0 | CDK2 = 0 | CDK3 = 0 | CDK4 = 0 | CDK5 = 0 | CDK6 = 0

CN1CCN(c2ccc(-n3cc(-c4ccncc4OCC4CCNCC4)cn3)cc2)CC1 [MELK-8a (hydrochloride)] (10 µM)
inactive: ABL1 = 0 | AKT1 = 0 | ALK 0 | ARAF 0 | AURKA 0 | AURKB 0 | AURKC 0 | BLK 0 | BMX 0 | BRAF 0 | BRAF_V600E 0 | BTK 0 | CAMK2A 0 | CAMK2G 0 | CDK10 = 0 | CDK2 = 0 | CDK3 = 0 | CDK4 = 0 | CDK5 = 0 | CDK6 = 0

COc1cc(Nc2ccnc3ccc(Br)cc23)cc(OC)c1OC (2.5 µM)
inactive: ABL1 = 0 | AKT1 = 0 | ALK 0 | ARAF 0 | AURKA 0 | AURKB 0 | AURKC 0 | BLK 0 | BMX 0 | BRAF 0 | BRAF_V600E 0 | BTK 0 | CAMK2A 0 | CAMK2G 0 | CDK10 = 0 | CDK2 = 0 | CDK3 = 0 | CDK4 = 0 | CDK5 = 0 | CDK6 = 0

COc1c(O)cc(O)c2c(=O)cc(-c3ccccc3)oc12 [Wogonin] (10 µM)
inactive: ABL1 = 0 | AKT1 = 0 | ALK 0 | ARAF 0 | AURKA 0 | AURKB 0 | AURKC 0 | BLK 0 | BMX 0 | BRAF 0 | BRAF_V600E 0 | BTK 0 | CAMK2A 0 | CAMK2G 0 | CDK10 = 0 | CDK2 = 0 | CDK3 = 0 | CDK4 = 0 | CDK5 = 0 | CDK6 = 0
